Test results from PubChem BioAssay AID588497 (NMMLSC, 2011).
Out of some 360,000 compounds screened, about 780 (0.22%) were called active. The shares of active, inactive and inconclusive entries below differ from those in the screen. Cut-off read from the data, not from the text of the source: active = inhibition above about 35% (passing the limit was not always enough); inconclusive = no clear call, values can overlap the other calls.

Each compound was assayed on Botulinum neurotoxin type F light chain protease (Clostridium botulinum) (assay: BoNT/F light chain protease inhibitors, primary screen, biochemical, flow cytometry, MLPCN library (AID 588497; note: plate controls were buffer without enzyme for full effect and enzyme alone for no effect)). Details: Multiplex microsphere protease cleavage assay, at 10 µM, hits give high values.

| SMILES | inhibition |
| --- | --- |
| CC(=O)Nc1ccc2nc(NC(=O)c3ccc([N+](=O)[O-])o3)sc2c1 | inconclusive: -26.5% |
| CS(=O)(=O)Nc1ccccc1C(=O)Nc1cccc(Cl)c1 | active: 52.6% |
| Cc1cccc2cc(C#N)c(SCC(=O)Nc3ccccc3N3CCOCC3)nc12 | inconclusive: 11.2% |
| CCCCNc1c(-c2ccc(Sc3ccc(OC)cc3)cc2)nc2cc(C)ccn12 | inactive: 3% |
| CN(C)C(=O)c1coc2nc3ccccc3nc12 | inconclusive: -86.8% |
| CCN(CC)CCCOC(=O)C(OC(C)C)(c1ccccc1)c1ccccc1 | active: 43.4% |
| COc1cc(NC(=O)C2CCCO2)c(C(=O)O)cc1OC (centres undefined) | inactive: -5% |
| O=C(Cn1ncc(Cl)c(Cl)c1=O)Nc1ccc2c(c1)OCO2 | inconclusive: 4.6% |
| CC(=O)N(C)c1ccc(N=NC2C(=O)N(C(N)=S)N=C2C)cc1 (centres undefined) | inconclusive: 16.7% |
| CSCCC(NC(=O)COc1ccccc1)C(=O)OCc1ccc([N+](=O)[O-])cc1 (centres undefined) | inconclusive: 3.2% |
| CCOc1ccccc1OCC(=O)Nc1nnc(COC)s1 | active: 53.4% |
| Cc1ccc(-n2c(-c3ccc(Cl)cc3)n[nH]c2=S)c(C)c1 | inconclusive: 8.1% |
| COc1ccc(N=C2SC(C(N)=O)CC(=O)N2Cc2ccc3c(c2)OCO3)cc1 (centres undefined) | inconclusive: 1% |
| CC1O[C@@H]2O[C@](O[C@H](C)CC[C@@H](C)O)(c3ccccc3)O[C@@H]2C[C@H]1O (some centres undefined) | inactive: -4.2% |
| Cc1ccc(NC(=O)CCCCCC2NC(=O)NC2C)cc1 (centres undefined) | active: 71.4% |
| Cc1cc(C)n(-c2ccccc2C#N)n1 | inconclusive: 14% |
| CCCCCN(C(=O)CCC(=O)OCC(=O)c1c(C)cc(C)cc1C)c1c(N)n(CCCC)c(=O)[nH]c1=O | inconclusive: -16.6% |
| C/C(CC(=O)Nc1ccc(Br)cc1)=N\NC(=O)c1cccc(O)c1 | inconclusive: 18.5% |
| OC(c1cccnc1)c1nc(-c2cccc(F)c2)cs1 (centres undefined) | inactive: -3.3% |
| CCC(CC)c1nnc(NC(=O)C2=COCCO2)s1 | inconclusive: 8.4% |
| O=C(CN(Cc1ccc(Cl)c(Cl)c1)S(=O)(=O)c1ccccc1)N/N=C\c1ccc2c(c1)OCO2 | inconclusive: -17.6% |
| COc1ccc2cc3cc(C(=O)NCCN4CCN(c5ccccc5F)CC4)oc3nc2c1 | inactive: 7.4% |
| c1ccc(Nc2cccc(Nc3ccccc3)c2)cc1 | inactive: -13% |
| COc1ccc(C(=O)Nc2ccccc2C(=O)Nc2ccc(C(=O)O)cc2)cc1 | inconclusive: 48.5% |

Exported with bars between the fields: 4 of the compounds above
SMILES | inhibition
CC(=O)N(C)c1ccc(N=NC2C(=O)N(C(N)=S)N=C2C)cc1 (centres undefined) | inconclusive: 16.7%
CSCCC(NC(=O)COc1ccccc1)C(=O)OCc1ccc([N+](=O)[O-])cc1 (centres undefined) | inconclusive: 3.2%
CCOc1ccccc1OCC(=O)Nc1nnc(COC)s1 | active: 53.4%
Cc1ccc(-n2c(-c3ccc(Cl)cc3)n[nH]c2=S)c(C)c1 | inconclusive: 8.1%

(list continues)

| SMILES | inhibition |
| --- | --- |
| Cc1nsc2nc3c(F)c(F)c(F)c(F)c3cc12 | inconclusive: 13.1% |
| O=[N+]([O-])CC(c1ccccc1)c1c[nH]c2ccccc12 (centres undefined) | inconclusive: -48.2% |
| CC(C)Sc1nc2ccccc2c(=O)[nH]1 | inconclusive: -9.1% |
| COCCNC(=O)c1ccc(N2CC3CC(C2)c2cccc(=O)n2C3)c(NC(=O)c2ccccc2Cl)c1 (centres undefined) | inactive: 3.6% |
| CCCC(NC(=O)COc1cc2c(c3oc(=O)c(C)c(C)c13)CCC(C)(C)O2)C(=O)O (centres undefined) | inconclusive: -24.7% |
| O=C(NCc1cccnc1)C1CC(c2cccc(Br)c2)=NO1 (centres undefined) | inconclusive: -29.9% |
| Cc1onc(-c2ccccc2Cl)c1C(=O)Nc1ccc(S(=O)(=O)Nc2nccs2)cc1 | inactive: -4.7% |
| C/C(=N\NC(=O)c1n[nH]c2c1CCC2)c1cccs1 | inconclusive: 17% |
| CCOc1ccc(OCc2ccc(C(=O)NN)o2)cc1 | inconclusive: -11.3% |
| CCOC(=O)C1(CCOc2ccccc2)CCN(Cc2cccc(F)c2)CC1 | inconclusive: 17.5% |
| COc1cc(C(=O)COC(=O)c2cccs2)cc(OC)c1OC | inactive: -1.6% |
| CN(C)CCNC(=S)NC1CCCCC1 | inactive: -2.5% |
| O=[N+]([O-])c1ccc(N/N=C/C=C/c2ccco2)cc1 | inconclusive: 15% |
| O=C(CSc1ncn[nH]1)c1ccc2c(c1)OCCO2 | inactive: -3.8% |
| CC1(C(=O)NS(=O)(=O)c2ccc(F)cc2F)CCN1C(=O)CC(c1ccccc1)c1ccccc1 (centres undefined) | inactive: -5% |
| Cc1ccc(S(=O)(=O)N2CCCCC2)cc1NC(=O)C1CC1 | inconclusive: -12.5% |
| CN(Cc1ccccc1)c1c([N+](=O)[O-])c(=O)n(C)c2ccccc12 | inconclusive: 17.1% |
| C=CCn1c(O)c(C(CC)=NCCCO)c(=O)[nH]c1=O | inactive: -2.8% |
| COc1ccc(NC(=O)c2ccc3ccccc3c2OC)cc1 | inconclusive: -6.2% |
| CC(C)[C@@H]1Cc2[nH]c(=O)[nH]c(=O)c2[C@H](C)O1 | inactive: 0.3% |
| C/C(=N/NC(=O)CN1CCN(Cc2ccccc2Cl)CC1)c1ccco1 | inactive: 27.4% |
| CCn1nnc(NC(=O)COc2ccc(C3CCCCC3)cc2)n1 | inactive: 3.1% |
| Cc1ccc(NC(=O)c2cc3ccccc3o2)cc1 | inconclusive: -42.6% |
| COc1cccc2ccc(CC(O)(c3ccccc3)c3ccccc3)nc12 | inactive: -4.3% |

| SMILES | inhibition |
| --- | --- |
| CC1CCCC(NC(=O)COC(=O)COc2cccc(F)c2)C1C (centres undefined) | inactive: 0.5% |
| O=C(Nc1ccccc1C(=O)O)c1cc(S(=O)(=O)Nc2ccccc2)ccc1Cl | inconclusive: 8.7% |
| CCc1c(O)nc(SCC(=O)c2ccccc2)n(-c2ccccc2)c1=O | inconclusive: 68% |
| Cn1c(=O)n(CC(=O)Nc2cccnc2)c2ccccc21 | inactive: 2.7% |
| Cc1cccc(C(=O)NC2CCN(S(=O)(=O)c3ccccc3F)CC2)c1 | inconclusive: -13.4% |
| CCc1nc(Nc2ccc(OC)cc2OC)c2oc3ccccc3c2n1 | inconclusive: 1.8% |
| CC1CCN(CCNC(=O)c2ccc(NC(=O)C3CCCO3)cc2)CC1 (centres undefined) | inactive: -4.2% |
| c1ccc2c(CNn3cnnc3)cccc2c1 | inconclusive: 16.4% |
| CC(C(=O)NCc1ccc(F)cc1)c1ccc([N+](=O)[O-])cc1 (centres undefined) | inactive: 1.8% |
| O=S(=O)(Nc1cnc2ccccc2c1)N1CCCCCC1 | inconclusive: -8.2% |
| CCc1ccc(/C(C)=N/NC(=O)C(O)c2ccccc2)s1 (centres undefined) | inconclusive: -32% |
| O=C(Nc1cccnc1)c1cc(-c2ccccc2)on1 | inconclusive: 5.6% |
| CN1CCC(N2CCN(C3CN(Cc4ccccc4)S(=O)(=O)C3)CC2)CC1 (centres undefined) | inactive: -3.7% |
| COCc1nn2c(N)c(C#N)cnc2c1-c1ccccc1 | inconclusive: -46.8% |
| CC(C)(C)NC(=O)c1nn2c(C(F)(F)F)cc(-c3ccccc3)nc2c1Br | inconclusive: -30.1% |
| COc1ccc(-c2ccc(SCC(=O)c3ccccc3)nn2)cc1OC | inactive: -1.4% |
| CCc1nnc(NC(=O)CN2CCN(Cc3ccccc3Cl)CC2)s1 | inconclusive: -17.5% |
| Cc1c(C)c2ccc(O)c(CN3CCN(C)CC3)c2oc1=O | inconclusive: -13.9% |
| Cc1ccc(S(=O)(=O)N(Cc2ccccc2)C(C)C)cc1 | inconclusive: -2.5% |
| Cn1cccc1/C=N/NC(=O)CSc1nc2ccccc2n1C | inconclusive: 3.9% |
| O=C(Nc1ccccc1C(=O)O)c1cc(S(=O)(=O)Nc2cccc(F)c2)ccc1Cl | inconclusive: 29.8% |
| O=C(CN1C(=O)c2ccccc2C1=O)Nc1ccccc1 | inconclusive: 1.9% |
| COC(=O)c1cc(NC(=O)CSc2nncn2C)cc(C(=O)OC)c1 | inactive: 1% |
| CCCc1cc(=O)[nH]c(SCC(=O)NCCN2C(=O)CSC2=O)n1 | inactive: 3.8% |

| SMILES | inhibition |
| --- | --- |
| CCc1ccc(OCCCCCn2ccnc2)cc1 | inconclusive: -18.3% |
| CN(Cc1ccccc1)C(=O)c1cnc2n(c1=O)CCS2 | inactive: 4.4% |
| CCc1nc2ccccc2c(=O)n1/N=C/c1ccc(OC)cc1 | inconclusive: -91.2% |
| CCCCc1c(C)nc(N2CCCC2)[nH]c1=O | inconclusive: 19% |
| O=C(Nc1cccn(Cc2c(Cl)cccc2Cl)c1=O)c1c(Cl)cccc1Cl | inconclusive: -32.7% |
| COc1ccc(CCNCC(O)COc2cccc(C(C)=O)c2)cc1OC (centres undefined) | inactive: -39.2% |
| COc1ccccc1C(=O)Nc1ccc2c(c1)n(C)c(=O)n2C | inconclusive: 28.6% |
| CC1(C)CC(/C=C/c2ccccc2)=Nc2ccccc2N1 | inactive: -0.7% |
| COc1cc(C(=O)Nc2ccc(C)cc2)c(-n2cnnn2)cc1OC | inactive: 4.9% |
| CCCCN(C(=O)c1cccc(S(=O)(=O)N(CC)c2ccccc2)c1)c1c(N)n(CCCC)c(=O)[nH]c1=O | inactive: -5.7% |
| CC(=O)c1ccc(OCC(=O)OCC(=O)N(CC(C)C)c2c(N)n(Cc3ccccc3)c(=O)[nH]c2=O)cc1 | inactive: 4.1% |
| O=C(CN1C(=O)NC2(CCOc3ccccc32)C1=O)N1CCCCC1 (centres undefined) | inactive: 6.4% |
| CN1CCOCCOc2ccccc2OCCOCC1 | inconclusive: 15.9% |
| Cn1cnc(S(=O)(=O)N2CCN(c3cccc(C(F)(F)F)c3)CC2)c1 | inactive: 0% |
| CCn1nnnc1SCC(=O)c1ccc(C)cc1C | inconclusive: -25.9% |
| CCn1c(/C=C/c2cc[n+](C)cc2)nc2ccccc21 | inconclusive: 6.2% |
| O=c1ccc(-c2ccccc2)nn1Cc1ccccc1F | inconclusive: -37.2% |
| Cc1c(NS(=O)(=O)c2cc(C(=O)OCC(=O)c3ccccc3F)ccc2Cl)c(=O)n(-c2ccccc2)n1C | inactive: -3.7% |
| COc1cc(OC)c(C(=O)Nc2ccc3ccccc3c2)cc1OC | inconclusive: 4.8% |
| CC(=O)N1N=C(c2ccccc2)CC1c1ccc(F)cc1 (centres undefined) | inconclusive: -18.7% |
| CC1CCCC(N2CCN(C(=O)c3ccccc3F)CC2)C1 (centres undefined) | inconclusive: 6.4% |
| N#Cc1c(-c2ccc(Cl)cc2)c2c([nH]c1=O)-c1ccccc1OC2 | inconclusive: 24.7% |
